Measurements reported in paper PMC9582199, “Molecular architecture of the glycogen- committed PP1/PTG holoenzyme” (Nature Communications, 2022).

Experiments:
[1] = biological target: T1, PTG^70-264 (human) (UniProt Q9UQK1); assay: grating-coupled interferometry (GCI); PTG 70-264 immobilised by amine coupling on 4PCH WAVE chip (1000 pg/mm^2); PP1 7-330 injected, 1:2 dilution series from 400 nM; 25 °C; 10 mM Hepes pH 7.2, 150 mM NaCl, 0.005% Tween 20; both purified
T1 sequence: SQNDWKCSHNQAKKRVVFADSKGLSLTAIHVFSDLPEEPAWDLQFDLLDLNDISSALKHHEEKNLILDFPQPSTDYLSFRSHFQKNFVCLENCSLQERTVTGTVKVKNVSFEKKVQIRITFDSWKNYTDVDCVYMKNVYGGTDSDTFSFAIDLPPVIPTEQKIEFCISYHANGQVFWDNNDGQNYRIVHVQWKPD

[2] = biological target: T1, PTG^70-264 (human); assay: crystal structure; co-expressed and co-purified PP1 7-300/PTG 70-264 complex with 5 mM β-cyclodextrin; dehydrated crystals; 2.7 Å in two directions, 3.9 Å in the third; both purified
[3] = biological target: T1, PTG^70-264 (human); assay: SEC-SAXS; co-purified PTG 70-264/His-PP1 7-330 complex, 4 mg/ml without and 6.5 mg/ml with 5 mM β-cyclodextrin; 50 mM Tris pH 8, 0.5 M NaCl, 10% glycerol, 1 mM DTT; 20 °C; both purified
[4] = biological target: 6xHis-tagged PP1^7-330; assay: grating-coupled interferometry (GCI); 6xHis-tagged PP1 7-330 reversibly captured on 4PCP-NTA WAVE chip (3600 or 1600 pg/mm^2); peptides injected, 1:2 dilution series from 300 nM; 25 °C; 10 mM Hepes pH 7.2, 150 mM NaCl, 0.005% Tween 20, 0.2 mg/ml BSA; mass transport binding model; both purified
[5] = biological target: PP1^7-330 (GCI analyte); assay: grating-coupled interferometry (GCI); CBM21 aa. 132-264 tested with PP1; both purified

Molecule: PP1^7-330 (GCI analyte) (enzyme)
- binding [1]: binds

Molecule: PP1^7-300 (enzyme)
- binding [2]: binds

Molecule: 6xHis-tagged PP1^7-330 (enzyme)
- binding [3]: binds

B1: PTG peptide 81-132 (peptide, UniProt Q9UQK1 81-132, looked up)
peptide: AKKRVVFADSKGLSLTAIHVFSDLPEEPAWDLQFDLLDLNDISSALKHHEEK
notes: also called peptide 2; source: synthetic peptide, bought: ProteoGenix SAS
- binding [4]: binds

B2: PTG CBM21 (residues 132-264) (domain or fragment, UniProt Q9UQK1 132-264)
chain: KNLILDFPQPSTDYLSFRSHFQKNFVCLENCSLQERTVTGTVKVKNVSFEKKVQIRITFDSWKNYTDVDCVYMKNVYGGTDSDTFSFAIDLPPVIPTEQKIEFCISYHANGQVFWDNNDGQNYRIVHVQWKPD
- binding [5]: no binding

Results are given in words; binding and its absence hold for the method and conditions named. For some assays here: A result given as binding can be weak or reduced; the word gives no strength. For some assays here: In cells and extracts the contact can be indirect.
